For nine molecules, growth results are on record in the supplement of paper PMC8007513.

This is one part of the list. Most values come without repeats; read them as rough.

This test has as its system Saccharomyces cerevisiae BY4743. As to the kind of experiment: growth (OD600) with compound + IPBC relative to untreated control; higher = less growth inhibition. The following applies: compound concentration: 133 uM; IPBC concentration: 0.5 ug/ml; 20 h. On the procedure: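 NMCCC compounds (133 uM) combined with IPBC (0.5 ug/ml) against Saccharomyces cerevisiae BY4743 in YPD, 96-well plates. Growth was read as OD600 at 20 h and expressed as % of the untreated control. Single pass.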
Turning to `CCCOc1c(Br)cc(C(=O)OCC(=O)N(C)C2CCS(=O)(=O)C2)cc1OC` (centres undefined) + CCCCNC(=O)OCC#CI [3-iodo-2-propynyl butylcarbamate (IPBC)], the growth came out at 97.3%.

For `CCOC(=O)c1c(C)oc2ncnc(NCc3ccccc3Cl)c12` + CCCCNC(=O)OCC#CI [3-iodo-2-propynyl butylcarbamate (IPBC)], the growth was found to be 103%. In the case of `CCCCc1c(C)nn(-c2nc(C)c(C(=O)NC(C)C)s2)c1O` + CCCCNC(=O)OCC#CI [3-iodo-2-propynyl butylcarbamate (IPBC)], the growth came to 114%. Regarding `CCOC(CNC(=O)c1cc2c(s1)-c1ccccc1OC2)OCC` + CCCCNC(=O)OCC#CI [3-iodo-2-propynyl butylcarbamate (IPBC)], the growth is 104%.

`CCOC(=O)N1CCN(C(=O)c2cc(OC)c(OC)cc2-n2cccc2)CC1` + CCCCNC(=O)OCC#CI [3-iodo-2-propynyl butylcarbamate (IPBC)]: the growth came out at 94.9%.

Take `N#CCCN(C(=O)COc1ccc(F)c(Cl)c1)c1ccc2c(c1)OCCO2` + CCCCNC(=O)OCC#CI [3-iodo-2-propynyl butylcarbamate (IPBC)]: the growth was found to be 98.2%.

As to `CCC1=CC=C(C=C1)C2=N[NH]C(=N2)SC\C3=C\C(=O)\C(=C/O3)O` + CCCCNC(=O)OCC#CI [3-iodo-2-propynyl butylcarbamate (IPBC)], the growth came out at 95.1%. Take `O=C(NCc1ccco1)C1(S(=O)(=O)c2ccccc2)CCCC1` + CCCCNC(=O)OCC#CI [3-iodo-2-propynyl butylcarbamate (IPBC)]: the growth was found to be 112%. On to `FC(F)(F)C/1=C/N(CC/2=C/C(=O)N/3\C=C(Br)/C=C\C3=N2)C(=O)/C=C1` + CCCCNC(=O)OCC#CI [3-iodo-2-propynyl butylcarbamate (IPBC)], for which the growth amounted to 102%.
